# Measured values taken from publication PMC11843548.
# These are yes or no findings as the source states them, for the method shown. Binding seen in cells or lysates may run through a third protein. Binding can be weak; no strength is given. Sequences can lack the tags named with a protein.
# B1: V5-tagged Wnt-2 (ligand, UniProt P09544 26-360)
# chain: SWWYMRATGGSSRVMCDNVPGLVSSQRQLCHRHPDVMRAISQGVAEWTAECQHQFRQHRWNCNTLDRDHSLFGRVLLRSSRESAFVYAISSAGVVFAITRACSQGEVKSCSCDPKKMGSAKDSKGIFDWGGCSDNIDYGIKFARAFVDAKERKGKDARALMNLHNNRAGRKAVKRFLKQECKCHGVSGSCTLRTCWLAMADFRKTGDYLWRKYNGAIQVVMNQDGTGFTVANERFKKPTKNDLVYFENSPDYCIRDREAGSLGTAGRVCNLTSRGMDSCEVMCCGRGYDTSHVTRMTKCGCKFHWCCAVRCQDCLEALDVHTCKAPKNADWTTAT
# Target: FLAG-tagged small-splice variant of TNC (full-length)
# Experiment: co-IP; FLAG-tagged TNC constructs and V5-tagged Wnt-2 co-overexpressed in HEK293; lysates in NDLB (50 mM Tris-HCl pH 7.4, 300 mM NaCl, 5 mM EDTA, 1% Triton X-100), 1 mg/mL, anti-FLAG antibody overnight at 4 °C, Protein A/G magnetic beads, 5 washes; V5-Wnt2 detected by immunoblotting
binder,measurement,value
B1,binding,binds weakly
